Measured data: PubChem BioAssay AID1224830 (NIAID, 2016)
Screen: 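Regulators of TLR4 signalling towards TNF-alpha in macrophage-like cells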 (primary screen). Cells: human THP-1 monocytic leukaemia cells, TNF dual-luciferase reporter clone, PMA-differentiated to macrophage-like cells. Reagent: siRNA pool against human genes, 50 nM. Timing: LPS for 4 h, given about 3 days after siRNA transfection. Conditions: bacterial LPS (TLR4 ligand), 10 ng/ml. Detection: 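Ratio of firefly to renilla light, scaled to the plate median and expressed as a robust z-score per replicate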. Direction: TNF reporter robust z-score: higher = stronger TNF reporter response to LPS. Hit rule: 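a well is active when its z-score exceeds 2.8 or falls below -1.5; control wells carry no call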.
Here is one part, drawn at random, of about 18,000 reagents tested. Over the whole deposit, about 2,900 (16%) were called active. 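Calls are made per well; low scores hint the gene aids the LPS response, high scores that it dampens it.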 Repeated entries: four replicate wells of each siRNA pool.

The opening 2 records, ahead of the listing:
PUS1 (pseudouridine synthase 1) → TNF reporter robust z-score = 1.71; Outcome = inactive
PUS1 (pseudouridine synthase 1) → TNF reporter robust z-score = 1.12; Outcome = inactive

The list itself, repeating the preview:
PUS1 (pseudouridine synthase 1) → TNF reporter robust z-score = 1.71; Outcome = inactive
PUS1 (pseudouridine synthase 1) → TNF reporter robust z-score = 1.12; Outcome = inactive
PUS1 (pseudouridine synthase 1) → TNF reporter robust z-score = 2.53; Outcome = inactive
PUS1 (pseudouridine synthase 1) → TNF reporter robust z-score = 0.76; Outcome = inactive
SF3A3 (splicing factor 3a subunit 3) → TNF reporter robust z-score = -0.46; Outcome = inactive
SF3A3 (splicing factor 3a subunit 3) → TNF reporter robust z-score = -0.82; Outcome = inactive
SF3A3 (splicing factor 3a subunit 3) → TNF reporter robust z-score = -0.6; Outcome = inactive
SF3A3 (splicing factor 3a subunit 3) → TNF reporter robust z-score = 0.14; Outcome = inactive
MASP2 (MBL associated serine protease 2) → TNF reporter robust z-score = 0.55; Outcome = inactive
MASP2 (MBL associated serine protease 2) → TNF reporter robust z-score = 1.47; Outcome = inactive
MASP2 (MBL associated serine protease 2) → TNF reporter robust z-score = 1.05; Outcome = inactive
MASP2 (MBL associated serine protease 2) → TNF reporter robust z-score = 0.54; Outcome = inactive
COL22A1 (collagen type XXII alpha 1 chain) → TNF reporter robust z-score = -0.34; Outcome = inactive
COL22A1 (collagen type XXII alpha 1 chain) → TNF reporter robust z-score = -1.02; Outcome = inactive
COL22A1 (collagen type XXII alpha 1 chain) → TNF reporter robust z-score = 0.73; Outcome = inactive
COL22A1 (collagen type XXII alpha 1 chain) → TNF reporter robust z-score = -0.24; Outcome = inactive
VAMP5 (vesicle associated membrane protein 5) → TNF reporter robust z-score = 0.8; Outcome = inactive
VAMP5 (vesicle associated membrane protein 5) → TNF reporter robust z-score = 1.04; Outcome = inactive
VAMP5 (vesicle associated membrane protein 5) → TNF reporter robust z-score = 1.28; Outcome = inactive
VAMP5 (vesicle associated membrane protein 5) → TNF reporter robust z-score = 1.36; Outcome = inactive
MAK16 (MAK16 homolog) → TNF reporter robust z-score = 0.12; Outcome = inactive
MAK16 (MAK16 homolog) → TNF reporter robust z-score = 0.18; Outcome = inactive
MAK16 (MAK16 homolog) → TNF reporter robust z-score = 1.52; Outcome = inactive
MAK16 (MAK16 homolog) → TNF reporter robust z-score = 1.03; Outcome = inactive
TMUB1 (transmembrane and ubiquitin like domain containing 1) → TNF reporter robust z-score = 2; Outcome = inactive
TMUB1 (transmembrane and ubiquitin like domain containing 1) → TNF reporter robust z-score = 2.39; Outcome = inactive
TMUB1 (transmembrane and ubiquitin like domain containing 1) → TNF reporter robust z-score = 2.45; Outcome = inactive
TMUB1 (transmembrane and ubiquitin like domain containing 1) → TNF reporter robust z-score = 1.67; Outcome = inactive
CYYR1 (cysteine and tyrosine rich 1) → TNF reporter robust z-score = 1.32; Outcome = inactive
CYYR1 (cysteine and tyrosine rich 1) → TNF reporter robust z-score = 0.37; Outcome = inactive
CYYR1 (cysteine and tyrosine rich 1) → TNF reporter robust z-score = 0.38; Outcome = inactive
CYYR1 (cysteine and tyrosine rich 1) → TNF reporter robust z-score = 1.53; Outcome = inactive
